The target of assay [1] is T1, N-terminally His-tagged Cas1 (Pectobacterium atrosepticum SCRI1043) (UniProt Q6D0X0).
T1 sequence: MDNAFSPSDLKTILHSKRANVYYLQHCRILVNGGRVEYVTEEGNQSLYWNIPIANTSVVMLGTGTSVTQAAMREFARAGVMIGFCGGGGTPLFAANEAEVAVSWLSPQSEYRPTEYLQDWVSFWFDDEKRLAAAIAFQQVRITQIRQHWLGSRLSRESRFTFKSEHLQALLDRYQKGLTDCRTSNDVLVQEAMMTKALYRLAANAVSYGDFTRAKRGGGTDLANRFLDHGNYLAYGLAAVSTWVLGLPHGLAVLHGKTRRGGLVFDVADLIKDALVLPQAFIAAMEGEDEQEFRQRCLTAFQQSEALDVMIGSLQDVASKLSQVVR
Description: affinity purification with mass spectrometry; N-terminally His-tagged bait (pTRB30 derivative) co-expressed with untagged Csy1-3 and Cas6f (pJSC11) in P. atrosepticum Δcas (PCF80); lysate on Ni-NTA, 50 mM NaH2PO4, 300 mM NaCl, wash 40 mM imidazole, elution 250 mM imidazole; SDS-PAGE (Coomassie) and LTQ-Orbitrap MS; compared with His-SdhE control.

The target of assay [2] is T1, N-terminally His-tagged Cas1 (Pectobacterium atrosepticum SCRI1043). Description: affinity purification with mass spectrometry; His-Cas1 and untagged Cas3 co-expressed from pJSC10 in P. atrosepticum Δcas (PCF80), with or without pJSC11 (Csy1-3, Cas6f); Ni-NTA, wash 40 mM imidazole, imidazole gradient elution; SDS-PAGE (Coomassie), confirmed by MS.

Results are given in words; binding and its absence hold for the method and conditions named. In cells and extracts the contact can be indirect. Here binding means that the protein was enriched with, or labelled near, the bait; the list need not be complete. For some assays here: A no says only that the protein was not detected with the bait. Sequences can lack the tags named with a protein.

B1: native (untagged) Cas6f (enzyme, UniProt Q6D0W5 1-184)
chain: MDHYIDIRVQPDPEFTASQLLNALFAKLHRVLGQLANGKIGISFPEVGKTLGECLRLHGTEDALSTLEKTSWLKGLRDYTQVSECKVVPNGVKFRTVRRVQLKSSAERLRRRSVSKGWLTAAEAAARIPDAVEKRSALPFVQIKSLSNGQMFFVFVEHGPLQNAPTAGRFSSYGLSTEATVPWF
Consider B1, for which, in assay [1], the binding entry is given as “no binding”.

B2: native (untagged) Cas3 (enzyme, UniProt Q6D0W9 1-1098)
chain: MNILLISECNKRALVETRRILDQFAERKGERSWQTAITLEGLNTLRKLLRKTARRNTAVACHWIRSTNHTELLWVVGNLRRFNAQGSVPTNTTSRDVLRTKDENPWHSAEVFSLLAAIAGLFHDVGKANALFQAGLSGTGPRSQPYRHEWVSLRLFQAFVGEQDDKAWLTTLSMITSEAEVALLATLQQDKPTFSDSPFRTLPPLAQTIAWLIVSHHRLPVFNKSTELAPNSSEPQLSFAETWLTDHLSPQWNALNHCQIGWTPHEREQNWQFPNGTPLYSAVWREKARKFAGRALKLPSFMHFSQLDQRLTVHLARLALMLADHHYSAGAATVGWQDITYPVWANTDRKTGEYKQRLDEHCVGVGQNALLLGRSLPHLRDTLPAITRHKGFRQRSTHPRFRWQDRAFDLACSIRETSKQHGFFGINMASTGRGKTFANARIMYGLSDESTGCRFSVALGLRTLTLQTGDALRQRLKLDEDDLAVLIGSQAVQDLHEMRKENQQRQQNTPQTGSESADPLFSEHQYVRYDGSLDDGRLKAWLERSPTLHQLLSAPVLITTIDHLMPATEALRGGHQIAPMLRLLTADLVLDEPDDFGLEDLPALCRLVNWAGMLGSRVLLSSATLPPALIRALFDAYLDGRTAWQQAYGTPNTPLNVCCGWFDEFDCQHEQYGDVKDFMVRHDAFVHQRLKNLTKDELPLRFATIVPVSSPSKNADDVYLAVAQAIHPRMFDLHSQHHQQHENGKTVSLGLVRMANIDPLVAVARQLLAIPSPPDTCIHYCIYHSQHPLAMRSHIEQRLDAALMRNDADALWQVEEIRQAIEKSSQRHHVFVALATSVAEVGRDHDYDWAIVEPSSMRSLIQPAGRILRHRQDKQYVPKTPNIYLLSHNIRALRGKDIAYCKPGFESQDDSLDTHDLHQLLQEKEYRHLSAAPRIVQPMSFAKPLSLVALEHAVLGKTLLGLKNKKLDDLKRPPAAFWWRAHPHWNGELQRRTPFRQSAKDEAYTLWIADDDEEPVFMVQDDGPSGWKQSDIARPVTLNMAEGVSAWIEPDYHALYQQLAEEKQWELSWVSARFGEIRLREEEDWYWHPLLGVFGALS
As to B2, the binding entry in assay [2] is given as “binds”.

B3: native (untagged) Csy2 (protein, UniProt Q6D0W7 1-310)
chain: MSTLIILRRIQVENANAIAGLTYGFPAITHFLGFTHALSRKLQASHGLTLEGCGVVSHQHQLHAYGSSWERSFALTRNPLTKEAKTAAFNEEGRMHMTVSLLIRCDGQIPADTTALCEHLKQQAQCQRLAGGTVIDIERVTVQSLPVDEAETRGVMRRLLPGFVLRDRTSLLHRHFQTLQQAKPQAEMIDAWLDFAALKMQAERDPSDETVQWKYLPKPGDGGFLTPLMIGYRAISPLYAPGEVDKTRDPHTPFCFAEAAYGIGEWQGAHRISDISQILWEYDYQNGDYHCRQVADTHSVAEDTSYEFDY
Turning to B3, the binding entry in assay [1] is recorded as “no binding”.

B4: native (untagged) Csy3 (protein, UniProt Q6D0W6 1-337)
chain: MAKAATTLKTASVLAFERKLANSDALMYAGNWAQQDNWTAIAIQEKSVRGTISNRLKNALTSDPAKLDAEIQKANLQKVDVAALPFGADTLKIVFTLRVLGNLAQPSVCNDQDYQTALGDIITGYAQEQGFSTLAARYAENIANGRFLWRNRVGAEAIRVVVTKKGERSWEFNGEDYSLRQFSQPAGDLAALTQAIEKGLAGDASALFTVEAYVQLGNGQEVFPSQELVLDEKARNGKSKILYQVNDVAAIHSQKIGNALRTIDDWYPAADEAGPIAVEPYGSVTSRGKAYRQPREKMDFYTLLDNWVIKGDVPMPEQQHYVIATLIRGGVFGEKGE
As to B4, in assay [1], the binding result is “no binding”.

B5: native (untagged) Csy1 (protein, UniProt Q6D0W8 1-443)
chain: MRNGLPEFILSYINNRKQAKLDAFDKEAEKKRATLSGEALSVAELELAKARREIEQKHEVRNWLTDAASRAGQISLVTHALKFTHSDAKGSSVFNAETVEDATTLSTATLAQPAIDAVGNAAALDVAKLLQTEHDGDSLVAALQRGDNRALEALAENPEQLAQWLTGFQQVFTNRQPSSHKLAKQIYFPLANGEYHLLSPLYSSSLAHALHQRISAVRFGDEAKAIRQAQRTNQWHDQLSISYPNLAVQNMGGTKPQNISALNSSRSGRSYLLSSAPPQWNSIEKPPQQHESIFRPRGEVDYHTRATLAQMQRFLLSVKDVENNRDIRQQRLHYLDQLIDQLFFYVASVQNLPVGWSAESELKRAQQLWLDPYRAETDTVFRREREAGDWQQAVAYEFGRWLNRRLKHENLIFGEVERREWSTAALFKRRMREMESALKEELA
As to B5, in assay [1], the binding result is given as “no binding”.

Values taken from publication PMC3513311.
